Each number is a percent effect as filed.
The record does not define 0% and 100%; most values in the screen are far below 50% and negative numbers occur (in some assays of this library far below -100).
This is an unselected part of the compounds tested.

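Growth of Mycobacterium tuberculosis over 3 days (7H9 medium with glucose and tyloxapol); the read-out is not stated. Concentration: 500 µM. Direction is inferred from retests: higher values go with more growth inhibition. About 18,000 compounds were tested under these conditions; 7.9% (about 1,400) showed 50% or more at least once.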

compound	percent effect
COC(=O)CCNC(=O)c1nc(SC)n2ccccc12	10.11%
CC(C)C(=O)N1CCC(C(=O)NCC2CC2)CC1	16.76%
CN1CCC(Nc2ccc(Br)cn2)CC1	36.52%
CCc1ccccc1CN	8.55%
CC(C)(C)[S+]([O-])CCNC(=O)Cc1ccco1 (configuration not stated)	-30.09%
Cn1ncnc1COc1ccc(C#N)c(Cl)c1	2.297%
O=C(c1cc(F)ccc1Br)N1CCNCC1	-3.619%
CN(Cc1cccnc1)C(=O)c1cccc(Cl)c1	35.24%
CN1N=C(C(=O)NCC2CCN(C3CC3)C2)CCC1=O (configuration not stated)	6.003%
O=C(NCCn1cccc1)c1[nH]nc2c1CCCC2	42.9%
Cc1cc(N2CCNCC2)nc2ccccc12	54.21%
CSCC(=O)N1CCCC(c2nccn2C)C1 (configuration not stated)	1.026%
CC[C@H](O)CN1CCOC2(CCOCC2)CC1	2.049%
CCNC(=O)N1CCNCC1	-15.64%
O=C1CN(Cc2ccccc2)CC(=O)N1	4.928%
Cc1ccc(N2CCCC(N)C2=O)cc1 (configuration not stated)	7.594%
CC(c1cccc(O)c1)N(C)C(=O)c1ccncc1F (configuration not stated)	26.43%
CC(O)c1c(F)cccc1OCCN(C)C (configuration not stated)	17.24%
CN(CCNc1ccc2cc[nH]c2n1)S(C)(=O)=O	-11.09%
O=S(=O)(CCO)NCc1ccccc1	14.29%
COCCNC(C)COC (configuration not stated)	2.304%
N#CCCn1cnc2ccccc21	-2.365%
CC(C)OCc1nnc(C(C)N)s1 (configuration not stated)	6.634%
CCN1CCN(c2ccc(C(C)=O)cc2)CC1	-5.272%
CCS(=O)(=O)NCCNC(=O)c1ccccc1	25.09%
Cc1ccncc1NC(=O)CCCc1ccccn1	-8.035%
OCCNC1CCN(c2ncc(Cl)cn2)CC1	-5.608%
Cc1ccc(OCC(N)=O)cc1C	29.78%
O=C(CN1CCNCC1)NCCSc1ccc(Cl)cc1	71.6%
CC(CO)OCCc1ccccc1 (configuration not stated)	8.968%
COc1cc(C)c(NC(C)C(=O)NC(N)=O)cc1OC (configuration not stated)	11.92%
Cc1ccc(C(=O)NCCSc2nccn2C)c(=O)[nH]1	27.64%
CS(=O)(=O)N1CC(CO)C1	4.241%
O[C@@H]1COCC[C@H]1NC1Cc2ccccc2C1	1.771%
NC(CCN1CCOCC1)c1ccccc1 (configuration not stated)	1.079%
CCc1nnc(SCC(=O)Nc2cc(C)nn2C)[nH]1	-9.911%
CCn1cc(COC2CCNC2)cn1 (configuration not stated)	6.815%
O=C(CCC1CCCCC1)NCc1c[nH]nn1	18.3%
CC(C)NC(=O)Nc1cccc(S(=O)(=O)C(F)F)c1	69.98%
Cc1ccc(NC(=O)NC2CCCS(=O)(=O)C2)s1 (configuration not stated)	1.514%
NC(=O)C(Cc1ccccc1)NC(=O)c1ccccc1 (configuration not stated)	19.51%
CC(C)O[C@H]1C[C@@H](N)C1	-11.89%
CCN(Cc1ccc(Cl)s1)C(=O)c1ccc(=O)n(C)n1	-13.1%
Cc1ccc(C(C)CNC(=O)CCS(C)(=O)=O)cc1 (configuration not stated)	28.28%
CN(CCNC(=O)c1cnc[nH]1)Cc1ccc(F)cc1	10.4%
Cc1cccc(OCC(=O)OCC(=O)N2CCCC2)c1	16.97%
CSc1nc(C)cc(=O)[nH]1	3.962%
OC[C@@H](Cc1ccccc1)NC1CCOC1 (some centres not stated)	21.88%
N#Cc1ccnc(NCCC(=O)NC2CCCCC2)c1	-12.35%
CC(C)C(NC(=O)c1ccco1)C(=O)Nc1nccs1 (configuration not stated)	35.48%
COc1ccc(Cl)cc1C(=O)N1C[C@H](O)[C@@H](N(C)C)C1	-6.273%
CSc1ccccc1-c1[nH][nH]c(=O)c1CCN	35.53%
Cc1ccc(NC(=O)Cn2ncn(C)c2=O)c(C)c1	-7.866%
c1coc(-c2ccncc2)c1	-2.605%
CCC1CCCCN1C(=O)c1csc(NC(C)=O)n1 (configuration not stated)	24.2%
CCN1CCCC1CNS(=O)(=O)c1cnn(C)c1 (configuration not stated)	10.3%
CNCC1CCCOC1 (configuration not stated)	5.584%
Cc1cc(C2CCCN2C(=O)C2CCOCC2)on1 (configuration not stated)	33.07%

Repeated from the top, 5 entries:

{"compound": "COC(=O)CCNC(=O)c1nc(SC)n2ccccc12", "percent effect": 10.11}
{"compound": "CC(C)C(=O)N1CCC(C(=O)NCC2CC2)CC1", "percent effect": 16.76}
{"compound": "CN1CCC(Nc2ccc(Br)cn2)CC1", "percent effect": 36.52}
{"compound": "CCc1ccccc1CN", "percent effect": 8.55}
{"compound": "CC(C)(C)[S+]([O-])CCNC(=O)Cc1ccco1", "stereo": "configuration not stated", "percent effect": -30.09}

The values are deposited in ChEMBL (CHEMBL3988442, “University of Dundee, Small-Polar-MMV Screening Library” (2021)).